From PMC3691262 come the findings set out here.

This assay has as its target T1, FLAG-tagged murine Dact1 (Dapper Antagonist of Catenin-1) (mouse) (UniProt Q8R4A3).
T1 sequence: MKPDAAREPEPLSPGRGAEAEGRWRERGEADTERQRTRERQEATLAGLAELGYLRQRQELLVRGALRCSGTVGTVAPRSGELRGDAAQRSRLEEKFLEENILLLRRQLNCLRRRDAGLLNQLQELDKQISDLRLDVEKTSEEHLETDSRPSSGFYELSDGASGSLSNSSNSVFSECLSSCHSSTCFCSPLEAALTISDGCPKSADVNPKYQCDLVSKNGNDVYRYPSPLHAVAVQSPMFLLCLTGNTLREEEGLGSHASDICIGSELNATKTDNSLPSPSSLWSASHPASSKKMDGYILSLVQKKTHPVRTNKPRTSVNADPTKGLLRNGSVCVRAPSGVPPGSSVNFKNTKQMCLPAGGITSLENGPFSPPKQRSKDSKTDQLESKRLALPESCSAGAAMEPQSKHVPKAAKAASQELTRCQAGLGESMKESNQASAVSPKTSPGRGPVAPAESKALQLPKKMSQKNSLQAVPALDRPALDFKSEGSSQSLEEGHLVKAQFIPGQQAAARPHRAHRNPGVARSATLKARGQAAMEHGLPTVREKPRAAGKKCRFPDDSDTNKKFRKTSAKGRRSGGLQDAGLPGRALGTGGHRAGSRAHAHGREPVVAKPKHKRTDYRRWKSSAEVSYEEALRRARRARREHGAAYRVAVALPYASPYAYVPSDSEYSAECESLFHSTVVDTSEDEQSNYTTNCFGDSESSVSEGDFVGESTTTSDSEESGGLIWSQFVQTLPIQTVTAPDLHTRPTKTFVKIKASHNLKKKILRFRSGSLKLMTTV
The experiment in a line: co-IP; FLAG-Dact1 and HA-DISC1 recombinantly expressed in HEK293T cells; complexes immunoprecipitated with anti-FLAG agarose beads, associated proteins detected by immunoblot with anti-HA antibody.

No constants are given. Whether binding was seen depends on the method and setting. In cells and extracts the contact can be indirect. Some results given as binding are weak or reduced against the parent protein; the word gives no strength. Where a sequence is shown, tags or fusion partners need not be part of it.

B1: HA-tagged murine DISC1 (Disrupted in Schizophrenia-1) (protein, UniProt Q811T9 1-852)
chain: MQGGGPRGAPIHSPSHGADSGHGLPPAVAPQRRRLTRRPGYMRSTAGSGIGFLSPAVGMPHPSSAGLTGQQSQHSQSKAGQCGLDPGSHCQASLVGKPFLKSSLVPAVASEGHLHPAQRSMRKRPVHFAVHSKNDSRQSERLTGSFKPGDSGFWQELLSSDSFKSLAPSLDAPWNKGSRGLKTVKPLASPALNGPADIASLPGFQDTFTSSFSFIQLSLGAAGERGEAEGCLPSREAEPLHQRPQEMAAEASSSDRPHGDPRHLWTFSLHAAPGLADLAQVTRSSSRQSECGTVSSSSSDTGFSSQDASSAGGRGDQGGGWADAHGWHTLLREWEPMLQDYLLSNRRQLEVTSLILKLQKCQEKVVEDGDYDTAETLRQRLEELEQEKGRLSWALPSQQPALRSFLGYLAAQIQVALHGATQRAGSDDPEAPLEGQLRTTAQDSLPASITRRDWLIREKQRLQKEIEALQARMSALEAKEKRLSQELEEQEVLLRWPGCDLMALVAQMSPGQLQEVSKALGETLTSANQAPFQVEPPETLRSLRERTKSLNLAVRELTAQVCSGEKLCSSLRRRLSDLDTRLPALLEAKMLALSGSCFSTAKELTEEIWALSSEREGLEMFLGRLLALSSRNSRRLGIVKEDHLRCRQDLALQDAAHKTRMKANTVKCMEVLEGQLSSCRCPLLGRVWKADLETCQLLMQSLQLQEAGSSPHAEDEEQVHSTGEAAQTAALAVPRTPHPEEEKSPLQVLQEWDTHSALSPHCAAGPWKEDSHIVSAEVGEKCEAIGVKLLHLEDQLLGAMYSHDEALFQSLQGELQTVKETLQAMILQLQPTKEAGEASASYPTAGAQETEA
For the molecule B1, the binding entry is on record as “binds”.
